Reference: the supplement of paper PMC7666118
The list shows a part of the results.

By UniProt entry, the sequences of proteins in these tests, tags left out. Where a name states a change or a piece, a line headed by the entry shows the natural chain unless it says otherwise.
UniProt Q14676: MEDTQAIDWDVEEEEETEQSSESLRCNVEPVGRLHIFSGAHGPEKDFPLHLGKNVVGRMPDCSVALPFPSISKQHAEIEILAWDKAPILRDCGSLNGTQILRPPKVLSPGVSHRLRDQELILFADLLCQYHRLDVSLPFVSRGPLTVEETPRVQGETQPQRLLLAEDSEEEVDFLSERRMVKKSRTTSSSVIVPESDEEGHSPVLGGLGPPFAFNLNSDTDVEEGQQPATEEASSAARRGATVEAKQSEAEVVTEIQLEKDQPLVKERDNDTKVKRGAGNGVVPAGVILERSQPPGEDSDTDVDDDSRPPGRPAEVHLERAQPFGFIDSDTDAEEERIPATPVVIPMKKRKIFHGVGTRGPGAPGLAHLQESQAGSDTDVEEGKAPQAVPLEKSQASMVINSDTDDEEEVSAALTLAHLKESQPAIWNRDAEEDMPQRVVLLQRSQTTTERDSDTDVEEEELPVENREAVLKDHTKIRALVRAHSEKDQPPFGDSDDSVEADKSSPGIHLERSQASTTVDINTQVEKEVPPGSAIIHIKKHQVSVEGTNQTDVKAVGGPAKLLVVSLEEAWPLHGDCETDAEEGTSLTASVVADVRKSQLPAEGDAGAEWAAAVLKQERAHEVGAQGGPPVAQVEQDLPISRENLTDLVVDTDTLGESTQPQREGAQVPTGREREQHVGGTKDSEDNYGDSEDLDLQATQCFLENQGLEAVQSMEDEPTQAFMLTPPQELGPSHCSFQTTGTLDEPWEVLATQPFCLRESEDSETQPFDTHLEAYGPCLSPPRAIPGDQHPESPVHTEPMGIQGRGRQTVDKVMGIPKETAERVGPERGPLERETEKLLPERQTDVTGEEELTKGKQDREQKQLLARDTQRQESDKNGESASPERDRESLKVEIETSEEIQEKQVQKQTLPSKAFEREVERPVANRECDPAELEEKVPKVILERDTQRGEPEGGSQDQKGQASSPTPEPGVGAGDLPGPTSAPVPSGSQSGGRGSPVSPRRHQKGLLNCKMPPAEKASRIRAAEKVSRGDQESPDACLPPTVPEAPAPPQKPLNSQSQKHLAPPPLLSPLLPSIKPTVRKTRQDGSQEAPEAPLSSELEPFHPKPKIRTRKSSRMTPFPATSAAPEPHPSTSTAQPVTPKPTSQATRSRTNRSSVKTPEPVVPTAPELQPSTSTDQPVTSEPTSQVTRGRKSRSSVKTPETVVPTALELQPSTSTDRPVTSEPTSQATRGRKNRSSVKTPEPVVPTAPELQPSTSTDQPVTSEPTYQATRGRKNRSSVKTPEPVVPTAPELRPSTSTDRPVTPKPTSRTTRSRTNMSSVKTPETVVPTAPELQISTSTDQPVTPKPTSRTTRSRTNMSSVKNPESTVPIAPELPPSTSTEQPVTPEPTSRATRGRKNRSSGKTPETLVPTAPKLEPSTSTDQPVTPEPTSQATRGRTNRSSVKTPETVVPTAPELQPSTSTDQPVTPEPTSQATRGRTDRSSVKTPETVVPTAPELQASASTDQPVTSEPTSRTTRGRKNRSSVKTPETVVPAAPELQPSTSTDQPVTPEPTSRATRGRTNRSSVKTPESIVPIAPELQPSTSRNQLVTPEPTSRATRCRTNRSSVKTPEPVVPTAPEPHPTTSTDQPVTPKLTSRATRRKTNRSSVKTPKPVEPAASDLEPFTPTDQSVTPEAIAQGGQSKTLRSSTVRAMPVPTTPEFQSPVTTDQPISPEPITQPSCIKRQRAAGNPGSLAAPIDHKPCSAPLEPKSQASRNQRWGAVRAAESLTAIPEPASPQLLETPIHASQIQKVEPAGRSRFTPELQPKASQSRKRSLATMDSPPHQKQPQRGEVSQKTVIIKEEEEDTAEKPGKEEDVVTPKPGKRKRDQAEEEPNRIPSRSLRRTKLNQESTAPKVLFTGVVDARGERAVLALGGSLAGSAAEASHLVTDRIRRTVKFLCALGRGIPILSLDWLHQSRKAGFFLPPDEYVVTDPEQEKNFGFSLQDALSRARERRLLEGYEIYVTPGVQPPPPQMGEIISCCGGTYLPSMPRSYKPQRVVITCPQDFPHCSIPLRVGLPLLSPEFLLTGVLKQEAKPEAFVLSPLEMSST
UniProt Q96RQ3: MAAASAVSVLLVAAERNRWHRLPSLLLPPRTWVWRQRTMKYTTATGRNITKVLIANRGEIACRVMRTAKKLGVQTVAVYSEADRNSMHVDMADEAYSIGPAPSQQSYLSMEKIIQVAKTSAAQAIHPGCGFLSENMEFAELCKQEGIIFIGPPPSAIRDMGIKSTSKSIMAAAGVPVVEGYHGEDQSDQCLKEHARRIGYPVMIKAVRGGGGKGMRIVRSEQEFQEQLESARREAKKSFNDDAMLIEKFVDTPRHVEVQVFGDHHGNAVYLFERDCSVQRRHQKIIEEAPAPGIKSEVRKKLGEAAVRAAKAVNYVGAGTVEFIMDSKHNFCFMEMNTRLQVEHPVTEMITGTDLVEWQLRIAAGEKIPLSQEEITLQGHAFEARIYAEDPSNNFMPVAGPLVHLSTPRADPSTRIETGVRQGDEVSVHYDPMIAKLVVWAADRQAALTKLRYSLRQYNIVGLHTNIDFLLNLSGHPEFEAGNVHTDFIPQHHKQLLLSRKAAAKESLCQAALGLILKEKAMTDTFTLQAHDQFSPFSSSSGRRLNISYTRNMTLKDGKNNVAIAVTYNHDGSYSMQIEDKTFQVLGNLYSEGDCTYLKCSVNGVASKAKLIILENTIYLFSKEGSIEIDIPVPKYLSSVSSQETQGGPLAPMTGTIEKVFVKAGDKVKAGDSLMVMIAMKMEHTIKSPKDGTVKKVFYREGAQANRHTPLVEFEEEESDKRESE
UniProt Q9UKM7: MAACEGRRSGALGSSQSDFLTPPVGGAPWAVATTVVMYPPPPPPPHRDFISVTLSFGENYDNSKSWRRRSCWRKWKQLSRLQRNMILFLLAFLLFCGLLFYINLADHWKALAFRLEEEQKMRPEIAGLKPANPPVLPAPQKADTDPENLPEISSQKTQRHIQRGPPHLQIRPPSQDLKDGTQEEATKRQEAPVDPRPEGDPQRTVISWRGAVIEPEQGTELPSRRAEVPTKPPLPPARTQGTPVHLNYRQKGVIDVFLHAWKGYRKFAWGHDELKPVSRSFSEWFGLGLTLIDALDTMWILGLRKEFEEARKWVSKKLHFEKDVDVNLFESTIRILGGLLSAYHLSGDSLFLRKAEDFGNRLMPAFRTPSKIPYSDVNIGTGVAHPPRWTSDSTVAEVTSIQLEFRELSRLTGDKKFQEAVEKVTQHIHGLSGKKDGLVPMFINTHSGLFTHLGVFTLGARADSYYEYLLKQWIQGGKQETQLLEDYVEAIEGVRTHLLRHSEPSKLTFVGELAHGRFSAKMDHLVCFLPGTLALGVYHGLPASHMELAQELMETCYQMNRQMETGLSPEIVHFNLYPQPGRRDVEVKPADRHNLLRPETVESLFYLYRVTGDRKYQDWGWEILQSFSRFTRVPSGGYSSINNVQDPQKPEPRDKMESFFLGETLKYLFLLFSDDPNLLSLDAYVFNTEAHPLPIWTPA
UniProt Q9NS73: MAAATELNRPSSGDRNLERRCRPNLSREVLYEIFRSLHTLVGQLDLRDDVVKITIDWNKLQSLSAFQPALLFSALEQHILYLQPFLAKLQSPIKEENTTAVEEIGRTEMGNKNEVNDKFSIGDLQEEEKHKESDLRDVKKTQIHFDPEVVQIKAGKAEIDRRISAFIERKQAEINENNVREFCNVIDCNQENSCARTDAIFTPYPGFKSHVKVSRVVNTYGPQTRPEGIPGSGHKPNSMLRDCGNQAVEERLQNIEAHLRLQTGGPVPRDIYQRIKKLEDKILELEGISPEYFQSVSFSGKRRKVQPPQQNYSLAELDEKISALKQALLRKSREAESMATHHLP
UniProt Q68DH5: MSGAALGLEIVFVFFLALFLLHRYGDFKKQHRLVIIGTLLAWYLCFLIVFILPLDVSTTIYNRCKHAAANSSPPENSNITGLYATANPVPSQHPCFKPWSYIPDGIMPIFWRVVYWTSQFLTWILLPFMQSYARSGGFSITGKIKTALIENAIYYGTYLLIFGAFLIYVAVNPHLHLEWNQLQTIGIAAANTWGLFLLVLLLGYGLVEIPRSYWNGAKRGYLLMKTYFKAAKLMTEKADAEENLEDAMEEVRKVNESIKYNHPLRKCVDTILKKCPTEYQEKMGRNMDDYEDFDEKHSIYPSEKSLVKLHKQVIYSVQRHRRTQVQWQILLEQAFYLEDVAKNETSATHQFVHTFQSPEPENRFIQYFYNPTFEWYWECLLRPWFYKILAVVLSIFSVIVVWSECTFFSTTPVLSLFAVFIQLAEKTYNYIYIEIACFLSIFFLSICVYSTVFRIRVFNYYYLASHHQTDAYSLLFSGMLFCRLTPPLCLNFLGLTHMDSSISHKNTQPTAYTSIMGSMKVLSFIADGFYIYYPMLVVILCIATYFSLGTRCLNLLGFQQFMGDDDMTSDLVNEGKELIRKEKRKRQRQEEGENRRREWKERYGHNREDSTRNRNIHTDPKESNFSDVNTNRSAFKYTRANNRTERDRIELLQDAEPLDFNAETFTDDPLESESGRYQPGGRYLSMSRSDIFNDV
UniProt Q9NQ48: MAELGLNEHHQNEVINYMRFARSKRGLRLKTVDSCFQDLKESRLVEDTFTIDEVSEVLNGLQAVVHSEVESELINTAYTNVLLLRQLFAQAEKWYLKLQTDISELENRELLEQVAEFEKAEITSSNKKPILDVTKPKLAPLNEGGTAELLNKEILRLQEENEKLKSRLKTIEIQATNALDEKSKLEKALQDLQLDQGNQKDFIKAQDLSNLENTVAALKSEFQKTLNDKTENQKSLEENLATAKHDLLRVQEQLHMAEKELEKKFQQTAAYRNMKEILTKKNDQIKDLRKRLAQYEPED
UniProt Q14444, whole entry: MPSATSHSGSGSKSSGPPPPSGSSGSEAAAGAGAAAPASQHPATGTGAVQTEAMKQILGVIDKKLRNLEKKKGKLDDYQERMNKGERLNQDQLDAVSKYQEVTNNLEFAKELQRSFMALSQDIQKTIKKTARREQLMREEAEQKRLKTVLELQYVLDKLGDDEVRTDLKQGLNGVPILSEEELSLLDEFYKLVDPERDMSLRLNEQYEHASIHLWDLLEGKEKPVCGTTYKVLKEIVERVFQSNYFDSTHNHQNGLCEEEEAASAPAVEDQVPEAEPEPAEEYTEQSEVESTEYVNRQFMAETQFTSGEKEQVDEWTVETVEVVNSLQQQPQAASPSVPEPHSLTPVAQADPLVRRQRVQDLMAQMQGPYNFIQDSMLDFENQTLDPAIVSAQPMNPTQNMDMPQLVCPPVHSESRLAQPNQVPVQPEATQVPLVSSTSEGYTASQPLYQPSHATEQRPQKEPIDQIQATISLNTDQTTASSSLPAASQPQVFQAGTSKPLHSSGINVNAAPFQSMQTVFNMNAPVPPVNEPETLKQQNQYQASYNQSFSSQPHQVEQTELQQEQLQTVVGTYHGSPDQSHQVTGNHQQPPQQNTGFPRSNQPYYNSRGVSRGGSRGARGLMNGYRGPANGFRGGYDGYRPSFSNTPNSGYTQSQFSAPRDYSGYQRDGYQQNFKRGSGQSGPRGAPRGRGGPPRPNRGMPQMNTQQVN
UniProt Q3SY17: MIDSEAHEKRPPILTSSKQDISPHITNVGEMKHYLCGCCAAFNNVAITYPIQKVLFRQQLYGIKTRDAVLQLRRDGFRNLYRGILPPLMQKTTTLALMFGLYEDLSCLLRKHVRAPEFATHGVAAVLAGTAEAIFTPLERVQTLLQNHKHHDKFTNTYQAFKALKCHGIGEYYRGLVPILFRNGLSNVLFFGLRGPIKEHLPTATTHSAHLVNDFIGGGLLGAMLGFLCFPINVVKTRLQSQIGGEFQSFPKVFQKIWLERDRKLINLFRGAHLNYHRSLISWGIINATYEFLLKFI
UniProt Q5VZE5: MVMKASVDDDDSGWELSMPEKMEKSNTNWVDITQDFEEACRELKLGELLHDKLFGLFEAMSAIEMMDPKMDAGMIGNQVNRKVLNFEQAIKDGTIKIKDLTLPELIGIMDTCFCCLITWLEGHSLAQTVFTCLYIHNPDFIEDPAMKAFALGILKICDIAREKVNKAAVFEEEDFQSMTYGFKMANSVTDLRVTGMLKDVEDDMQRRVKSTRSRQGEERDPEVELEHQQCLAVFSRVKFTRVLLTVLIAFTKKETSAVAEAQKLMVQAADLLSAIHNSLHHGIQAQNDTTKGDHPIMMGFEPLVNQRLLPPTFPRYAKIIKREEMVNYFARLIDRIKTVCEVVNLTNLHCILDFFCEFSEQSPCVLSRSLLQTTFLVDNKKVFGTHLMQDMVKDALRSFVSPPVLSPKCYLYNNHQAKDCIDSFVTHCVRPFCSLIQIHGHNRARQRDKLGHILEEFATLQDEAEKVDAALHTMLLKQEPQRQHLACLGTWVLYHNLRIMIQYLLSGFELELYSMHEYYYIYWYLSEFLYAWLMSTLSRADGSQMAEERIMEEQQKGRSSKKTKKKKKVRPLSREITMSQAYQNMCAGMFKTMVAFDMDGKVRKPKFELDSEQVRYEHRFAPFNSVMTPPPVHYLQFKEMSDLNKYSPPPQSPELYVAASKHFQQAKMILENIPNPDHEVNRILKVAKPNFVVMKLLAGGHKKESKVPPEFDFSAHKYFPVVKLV

Compound: COc1ccc(Cn2ccc3cc(C)c(C(=O)NO)cc32)cc1
Experiment: dose-dependent thermal stabilisation call (2D-TPP, DLPTP, 10% FDR) (binary (1 = stabilised)); higher = stabilised by the compound
Settings: system: HL-60 intact cells; concentration range 0.04-10 µM
Protocol: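 2D thermal proteome profiling in intact HL-60 cells treated with BRD-3811 (0, 0.04, 0.29, 2, 10 uM) for 90 min at 37 C, then heated 3 min at one of 12 temperatures (42-63.9 C). Soluble protein was quantified by TMT10 MS. The value is the DLPTP call of the paper: dose-dependent thermal stabilisation over all temperatures at 10% FDR (F-test of a dose-response against a flat model); one experiment, one call per tested protein.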

| Target | dose-dependent thermal stabilisation call |
| --- | --- |
| MDC1 (UniProt Q14676) | inactive: 0 |
| LOC203547 | inactive: 0 |
| MCCC1 (UniProt Q96RQ3) | inactive: 0 |
| LOC90379 | inactive: 0 |
| LOC727762 | inactive: 0 |
| LPP (UniProt Q93052) | inactive: 0 |
| LOC653156 | inactive: 0 |
| ME1 (UniProt P48163) | inactive: 0 |
| LATS1 (UniProt O95835) | inactive: 0 |
| LSM4 (UniProt Q9Y4Z0) | inactive: 0 |
| LTF (UniProt P02788) | inactive: 0 |
| LMO7 (UniProt Q8WWI1) | inactive: 0 |
| MAPK8 (UniProt P45983) | inactive: 0 |
| LOC100133930 | inactive: 0 |
| L2HGDH (UniProt Q9H9P8) | active: 1 |
| LOC389203 | inactive: 0 |
| LSS (UniProt P48449) | inactive: 0 |
| MAN1B1 (UniProt Q9UKM7) | inactive: 0 |
| LMBR1 (UniProt Q8WVP7) | inactive: 0 |
| LSM6 (UniProt P62312) | inactive: 0 |

Two entries picked at random from those above, as already listed:

| Target | dose-dependent thermal stabilisation call |
| --- | --- |
| LSM6 (UniProt P62312) | inactive: 0 |
| LOC90379 | inactive: 0 |

Next records:

| Target | dose-dependent thermal stabilisation call |
| --- | --- |
| LMAN2 (UniProt Q12907) | inactive: 0 |
| LACE1 (UniProt Q8WV93) | inactive: 0 |
| LGALS9 (UniProt O00182) | inactive: 0 |
| LRRC47 (UniProt Q8N1G4) | inactive: 0 |
| LRMP (UniProt Q12912) | inactive: 0 |
| LRIG2 (UniProt O94898) | inactive: 0 |
| MBIP (UniProt Q9NS73) | inactive: 0 |
| LOC284889 | inactive: 0 |
| MAP4K4 (UniProt O95819) | inactive: 0 |
| LYRM2 (UniProt Q9NU23) | inactive: 0 |
| MARCKSL1 (UniProt P49006) | inactive: 0 |
| LMBRD2 (UniProt Q68DH5) | inactive: 0 |
| MBD2 (UniProt Q9UBB5) | inactive: 0 |
| LZTFL1 (UniProt Q9NQ48) | inactive: 0 |
| M11S1 (UniProt Q14444) | inactive: 0 |
| MCART2 (UniProt Q3SY17) | inactive: 0 |
| LPCAT3 (UniProt Q6P1A2) | inactive: 0 |
| MAP2K4 (UniProt P45985) | inactive: 0 |
| MAP1LC3B2 (UniProt A6NCE7) | inactive: 0 |
| MAK10 (UniProt Q5VZE5) | inactive: 0 |
